No constants are given. Whether binding was seen depends on the method and setting. Some results given as binding are weak or reduced against the parent protein; the word gives no strength.
B1: ANG749 (peptide)
peptide: YRLDLSECYYYPNPLHCY
B2: ANG751 (peptide)
peptide: IPLDCYFYPNPPSCYHSY
B3: ANG752 (peptide)
peptide: AASQTSDCYFYPNPPSCY
B4: ANG755 (peptide)
peptide: THLDCYFYPNPPHCYSST
B5: ANG756 (peptide)
peptide: NTNDPFDCFFYPNPPHCY
B6: ANG757 (peptide)
peptide: IHKLDLDCYYYPNPPHCY
B7: ANG762 (peptide)
peptide: FSHPFTDCFFYPNPQHCY
B8: ANG763 (peptide)
peptide: TVYDCYFYPNPGHCYLQL
B9: ANG765 (peptide)
peptide: MVFHELDCYFYPNPPHCY
B10: ANG766 (peptide)
peptide: HSLLHWDCYFYPNPSHCY
B11: ANG767 (peptide)
peptide: QLRECYWFPNPSHCYIES
B12: ANG769 (peptide)
peptide: GLVDCYFYPNPPHCYWPH
B13: ANG771 (peptide)
peptide: LFENSLGCYFFPNPPHCY
B14: ANG773 (peptide)
peptide: FPPWFQDCFFYPNPPVCY
B15: ANG774 (peptide)
peptide: HALECYFYPNPLHCYTQP
B16: ANG775 (peptide)
peptide: DPVDCYFYPNPAHCYSTV
B17: ANG776 (peptide)
peptide: IVVYSADCFFYPNPRHCY
B18: ANG777 (peptide)
peptide: RMFDCYFYPNPPLCYNHI
B19: ANG781 (peptide)
peptide: LWYTTVNCYFCPNPLHCY
B20: ANG782 (peptide)
peptide: DYLSMLECYFYPNPSHCY
B21: ANG783 (peptide)
peptide: FMTSGVECYFYPNPPHCY
B22: ANG784 (peptide)
peptide: LFLNPYDCYFYPNPPQCY
B23: ANG785 (peptide)
peptide: HQMTQIECYFFPNPQHCY
B24: ANG786 (peptide)
peptide: PWSPCYWYPNPRFCYEAS
B25: ANG787 (peptide)
peptide: LLVDCYYYPNPTHCSKNS
B26: ANG788 (peptide)
peptide: DCYFYPNPPHCYHDNEIE
B27: ANG790 (peptide)
peptide: PLLPFYDCYFYPNPSHCY
B28: ANG791 (peptide)
peptide: LVVDCYFYPNPPHCYDYS
B29: ANG793 (peptide)
peptide: RPSMHMECYFYPNPPYCY
B30: ANG795 (peptide)
peptide: GFLTSLDCYFYPNPPHCY
B31: ANG797 (peptide)
peptide: EVPDCYYYPNPPHCYEAN
B32: ANG798 (peptide)
peptide: RISSMVECYFYPNPPHCY
B33: ANG799 (peptide)
peptide: PFSVITECYFYPNPPHCY
B34: ANG800 (peptide)
peptide: PSADLLDCYFFPNPPHCS
B35: ANG801 (peptide)
peptide: QQADHIDCYFYPNPPYCY
B36: ANG802 (peptide)
peptide: STHDCFLYPNPPHCYWPQ
B37: ANG803 (peptide)
peptide: VASWKYDCYFYPNPLHCY
B38: ANG804 (peptide)
peptide: VDIDCYFYPNPPNCYNKA
B39: ANG805 (peptide)
peptide: LLDRFLDCYFYPNPSHCS
B40: ANG806 (peptide)
peptide: ECYFYPNPAHCYTGTNKE
B41: ANG807 (peptide)
peptide: LPHPHLDCYFYPNPAFCY
B42: ANG808 (peptide)
peptide: SYVDTTDCYFYPNPQHCY
B43: ANG809 (peptide)
peptide: PPLDCYFYPNPPNCYLGQ
B44: ANG810 (peptide)
peptide: WINDCYFYPNPSHCFVGD
B45: ANG811 (peptide)
peptide: YGTDCYFFPNPRNCYKIN
B46: ANG812 (peptide)
peptide: YSTDCYFYPNPPHCYGPH
B47: ANG813 (peptide)
peptide: PFSSFFDCYFYPNPHHCY
B48: ANG814 (peptide)
peptide: YVGHMLDCYFYPNPPHCY
B49: ANG815 (peptide)
peptide: SMYDCLYFPNPPHCYIQN
B50: ANG816 (peptide)
peptide: FTQPMVDCYFYPNPPHCY

The binders below were run against T1, Angiopoietin-2 (Ang2) (human, UniProt O15123 19-496, biotin label in Examples 22-24) (assay: Example 48, method not detailed).
T1 construct: also called rhAng2; recombinant Ang2
T1 sequence (looked up): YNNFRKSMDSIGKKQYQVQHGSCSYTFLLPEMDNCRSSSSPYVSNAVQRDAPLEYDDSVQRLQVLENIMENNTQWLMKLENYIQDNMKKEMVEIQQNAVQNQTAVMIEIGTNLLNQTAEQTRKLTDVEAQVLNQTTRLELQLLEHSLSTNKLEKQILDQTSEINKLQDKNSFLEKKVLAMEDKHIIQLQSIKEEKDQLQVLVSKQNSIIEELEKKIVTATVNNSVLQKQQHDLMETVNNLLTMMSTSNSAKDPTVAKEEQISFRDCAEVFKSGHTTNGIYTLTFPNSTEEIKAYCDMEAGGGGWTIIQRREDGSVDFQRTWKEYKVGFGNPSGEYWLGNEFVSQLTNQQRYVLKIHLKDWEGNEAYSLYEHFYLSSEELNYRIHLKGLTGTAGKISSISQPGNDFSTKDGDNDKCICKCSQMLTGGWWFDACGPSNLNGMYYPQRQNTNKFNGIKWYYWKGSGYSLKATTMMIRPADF
In the case of B1, the binding is reported as “binds”. With B2 the binding was “binds”. In the case of B3, the binding is reported as “binds”. B4 was tested, and the binding was “binds”. With B5 the binding was “binds”. B6 was tested, and the binding was “binds”. For B7, the binding was “binds”. For B8, the binding was “binds”. With B9 the binding was “binds”. B10 was tested, and the binding was “binds”. With B11 the binding was “binds”. B12 was tested, and the binding was “binds”. With B13 the binding was “binds”. In the case of B14, the binding is reported as “binds”. B15 was tested, and the binding was “binds”. For B16, the binding was “binds”. In the case of B17, the binding is reported as “binds”. In the case of B18, the binding is reported as “binds”. B19 was tested, and the binding was “binds”. B20 was tested, and the binding was “binds”. For B21, the binding was “binds”. In the case of B22, the binding is reported as “binds”. With B23 the binding was “binds”. With B24 the binding was “binds”. With B25 the binding was “binds”. B26 was tested, and the binding was “binds”. In the case of B27, the binding is reported as “binds”. For B28, the binding was “binds”. B29 was tested, and the binding was “binds”. In the case of B30, the binding is reported as “binds”. For B31, the binding was “binds”. B32 was tested, and the binding was “binds”. With B33 the binding was “binds”. B34 was tested, and the binding was “binds”. In the case of B35, the binding is reported as “binds”. B36 was tested, and the binding was “binds”. B37 was tested, and the binding was “binds”. In the case of B38, the binding is reported as “binds”. With B39 the binding was “binds”. B40 was tested, and the binding was “binds”. With B41 the binding was “binds”. For B42, the binding was “binds”. For B43, the binding was “binds”. For B44, the binding was “binds”. In the case of B45, the binding is reported as “binds”. With B46 the binding was “binds”. With B47 the binding was “binds”. In the case of B48, the binding is reported as “binds”. With B49 the binding was “binds”. With B50 the binding was “binds”.

— patent US20160046678A1 (ZYNGENIA, published 2016)
